No constants are given. Whether binding was seen depends on the method and setting. Some results given as binding are weak or reduced against the parent protein; the word gives no strength. Tags and fused reporters may be left off the sequences shown. One block for each binder: values may come before it.
Target: T1, Smc4-A1376S-Q1377A, 3xStrepTagII-tagged (S. cerevisiae) (UniProt Q12267)
T1 sequence: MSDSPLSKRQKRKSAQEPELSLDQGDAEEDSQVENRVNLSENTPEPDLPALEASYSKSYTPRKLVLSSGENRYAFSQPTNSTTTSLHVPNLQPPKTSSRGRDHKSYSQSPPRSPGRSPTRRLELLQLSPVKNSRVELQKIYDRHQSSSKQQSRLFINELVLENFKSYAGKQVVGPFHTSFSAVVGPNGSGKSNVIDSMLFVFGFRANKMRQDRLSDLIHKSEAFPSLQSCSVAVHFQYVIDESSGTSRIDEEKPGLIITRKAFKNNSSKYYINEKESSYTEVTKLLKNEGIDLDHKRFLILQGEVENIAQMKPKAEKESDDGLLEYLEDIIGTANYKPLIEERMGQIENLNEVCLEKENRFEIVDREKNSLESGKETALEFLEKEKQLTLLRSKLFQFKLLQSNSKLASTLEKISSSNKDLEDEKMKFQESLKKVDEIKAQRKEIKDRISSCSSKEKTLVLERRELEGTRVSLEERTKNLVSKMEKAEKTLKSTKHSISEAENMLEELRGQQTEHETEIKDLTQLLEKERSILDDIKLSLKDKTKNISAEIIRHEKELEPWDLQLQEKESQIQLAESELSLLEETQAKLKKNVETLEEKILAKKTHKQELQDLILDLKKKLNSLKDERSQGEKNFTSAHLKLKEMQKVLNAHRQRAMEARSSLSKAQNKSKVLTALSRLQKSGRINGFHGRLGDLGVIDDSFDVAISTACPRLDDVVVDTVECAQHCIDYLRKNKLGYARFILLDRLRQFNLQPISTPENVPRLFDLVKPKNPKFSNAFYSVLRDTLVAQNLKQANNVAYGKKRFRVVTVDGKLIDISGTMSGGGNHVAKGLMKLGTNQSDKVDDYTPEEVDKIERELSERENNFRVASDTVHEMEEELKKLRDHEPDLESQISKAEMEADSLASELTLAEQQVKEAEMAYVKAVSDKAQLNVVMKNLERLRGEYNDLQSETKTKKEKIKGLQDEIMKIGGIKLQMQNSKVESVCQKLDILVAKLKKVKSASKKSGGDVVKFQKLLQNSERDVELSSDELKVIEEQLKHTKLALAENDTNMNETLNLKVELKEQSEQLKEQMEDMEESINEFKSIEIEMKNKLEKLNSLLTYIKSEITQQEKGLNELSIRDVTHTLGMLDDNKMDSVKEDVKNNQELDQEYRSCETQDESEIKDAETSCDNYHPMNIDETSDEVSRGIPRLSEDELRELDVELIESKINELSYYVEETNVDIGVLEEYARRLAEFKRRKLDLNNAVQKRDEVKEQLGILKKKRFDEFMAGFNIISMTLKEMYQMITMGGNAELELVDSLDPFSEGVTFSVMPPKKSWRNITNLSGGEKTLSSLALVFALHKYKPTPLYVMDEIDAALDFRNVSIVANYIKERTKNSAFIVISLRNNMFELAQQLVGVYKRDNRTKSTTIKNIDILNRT
Assay: tandem affinity co-purification (Ni-NTA, Strep-Trap) + SEC; five condensin subunits co-overexpressed in yeast; extract in 500 mM NaCl, 10 mM Tris-HCl pH 8.0, 10% glycerol; Ni-NTA (His tags on Brn1 and Ycg1), then Strep-Trap HP (3xStrepTagII on Smc4), then Superose 6 10/300 in 200 mM NaCl, 50 mM Tris-HCl pH 8.0; subunits seen by SDS-PAGE and Coomassie staining

binding: binds
B1: Ycs4 (protein, UniProt Q06156 1-1176)
chain: MSGFSLSEYLTKFQTTDRESYPRLQDPSRELNVIIDQLAVSPEQIDASPDSLEALIDLCHDFPHLTPKLQTQLSYLISSSLSNLSKDIKANLSSNVNFTEIGGLIPQWKRHLEEYGYLIQVLLTFLQDELHKVSSQSTNLNRSAKNSKNDSANVELFKRDCNQMENLLESITKLLEINLSKIFQTTPEKDLFIGLFTRPLFVLLEIEPVTKVSSLKMFIQRILAMCVKNHGQSSSIQSSLMTNLTYFLHLSVFNAELLKLLNDEYNYPQLTEDILKEISTRVFNAKDTTGPKAISNFLIKLSELSPGIMLRQMNLVITLLNNSSITLRCSVVEACGNIVAELAQDPQTMEHYKQQIAVLIELLEERFQDSNPYVRTKAIQGCSKICDLSSKFNKSKAKFTSLAVRSLQDRSSLVRRNSVKLLSKLLLKHPFKAIHGSQLRLSEWEEYLKGSESQLNSTLKKVESQETLNDTIERSLIEEEVEQDEGQCRTELEGSFNKSAELSRIENEVENINATNTSVLMKLKLMIVYYKDAISFIKEIHKSIELISNLLFSKNRNEVLESMDFLVLADAFDIELSEFGIKKMLHLVWMKGTNDEGTSISVHLIECYKQLFLTAPDSCNMQEKAAHIAKNLINLSIGASIADLASLEQLLGMMYEQKLIDQHVINILWAIYNSASKASMQKEQNVNNRDSEKGFSKEQIHGSIIILGMLSLADNEIALKGLESLLNIGLGAVGLKDLTLCRYSCLALERMVPKRSTIITKAINQELEDVAVKKLYAIIINYTKDNEYYPMCEQALSALFTISSKPDILATDLIREKTMMTFGKPEEEDSILSLEQSSRVVSLSQLLFIVGQVAIKTLVYLEKCEAEFKKRKIEAETRNGKVKNQGADVTNTTQDNGGDKELEMIGGTNEDDFTDAIQFVKENELLFGEKSILGKFCPIVEEIVSNSSRFSDPMLQRTATLCLEKLMCLSSKYCEKSLPLLITVMEKSPDPTIRSNAVLGLGDMAVCFNNLVDENTDYLYRRLHDENLMVQRTCLMTVTFLILAGQVKVKGQLGEMAKCLDNPDQGISDMCRLFFTELASKDNAIYNGFIDIFSNLSSDDLLGKESFKKIIKFLLTFIDKERHQKQLNEKLVGRLRKCETQKQWDDIAFVLNNLPYKNEDVTALLEQGFKVVSAKE

binding: binds
B2: Ycg1-3xFLAG-9xHIS (protein, UniProt Q06680 1-1035)
chain: MQDPDGIDINTKIFNSVAEVFQKAQGSYAGHRKHIAVLKKIQSKAVEQGYEDAFNFWFDKLVTKILPLKKNEIIGDRIVKLVAAFIASLERELILAKKQNYKLTNDEEGIFSRFVDQFIRHVLRGVESPDKNVRFRVLQLLAVIMDNIGEIDESLFNLLILSLNKRIYDREPTVRIQAVFCLTKFQDEEQTEHLTELSDNEENFEATRTLVASIQNDPSAEVRRAAMLNLINDNNTRPYILERARDVNIVNRRLVYSRILKSMGRKCFDDIEPHIFDQLIEWGLEDRELSVRNACKRLIAHDWLNALDGDLIELLEKLDVSRSSVCVKAIEALFQSRPDILSKIKFPESIWKDFTVEIAFLFRAIYLYCLDNNITEMLEENFPEASKLSEHLNHYILLRYHHNDISNDSQSHFDYNTLEFIIEQLSIAAERYDYSDEVGRRSMLTVVRNMLALTTLSEPLIKIGIRVMKSLSINEKDFVTMAIEIINDIRDDDIEKQEQEEKIKSKKINRRNETSVDEEDENGTHNDEVNEDEEDDNISSFHSAVENLVQGNGNVSESDIINNLPPEKEASSATIVLCLTRSSYMLELVNTPLTENILIASLMDTLITPAVRNTAPNIRELGVKNLGLCCLLDVKLAIDNMYILGMCVSKGNASLKYIALQVIVDIFSVHGNTVVDGEGKVDSISLHKIFYKVLKNNGLPECQVIAAEGLCKLFLADVFTDDDLFETLVLSYFSPINSSNEALVQAFAFCIPVYCFSHPAHQQRMSRTAADILLRLCVLWDDLQSSVIPEVDREAMLKPNIIFQQLLFWTDPRNLVNQTGSTKKDTVQLTFLIDVLKIYAQIEKKEIKKMIITNINAIFLSSEQDYSTLKELLEYSDDIAENDNLDNVSKNALDKLRNNLNSLIEEINERSETQTKDENNTANDQYSSILGNSFNKSSNDTIEHAADITDGNNTELTKTTVNISAVDNTTEQSNSRKRTRSEAEQIDTSKNLENMSIQDTSTVAKNVSFVLPDEKSDAMSIDEEDKDSESFSEVC

binding: binds
B3: Smc2 (protein, UniProt P38989 1-1170)
chain: MKVEELIIDGFKSYATRTVITDWDPQFNAITGLNGSGKSNILDAICFVLGIASMSTVRASSLQDLIYKRGQAGVTKASVTIVFDNTDKSNSPIGFTNSPQISVTRQVVLGGTSKYLINGHRAPQQSVLQLFQSVQLNINNPNFLIMQGKITKVLNMKPSEILSLIEEAAGTKMFEDRREKAERTMSKKETKLQENRTLLTEEIEPKLEKLRNEKRMFLEFQSTQTDLEKTERIVVSYEYYNIKHKHTSIRETLENGETRMKMLNEFVKKTSEEIDSLNEDVEEIKLQKEKELHKEGTISKLENKENGLLNEISRLKTSLSIKVENLNDTTEKSKALESEIASSSAKLIEKKSAYANTEKDYKMVQEQLSKQRDLYKRKEELVSTLTTGISSTGAADGGYNAQLAKAKTELNEVSLAIKKSSMKMELLKKELLTIEPKLKEATKDNELNVKHVKQCQETCDKLRARLVEYGFDPSRIKDLKQREDKLKSHYYQTCKNSEYLKRRVTNLEFNYTKPYPNFEASFVHGVVGQLFQIDNDNIRYATALQTCAGGRLFNVVVQDSQTATQLLERGRLRKRVTIIPLDKIYTRPISSQVLDLAKKIAPGKVELAINLIRFDESITKAMEFIFGNSLICEDPETAKKITFHPKIRARSITLQGDVYDPEGTLSGGSRNTSESLLVDIQKYNQIQKQIETIQADLNHVTEELQTQYATSQKTKTIQSDLNLSLHKLDLAKRNLDANPSSQIIARNEEILRDIGECENEIKTKQMSLKKCQEEVSTIEKDMKEYDSDKGSKLNELKKELKLLAKELEEQESESERKYDLFQNLELETEQLSSELDSNKTLLHNHLKSIESLKLENSDLEGKIRGVEDDLVTVQTELNEEKKRLMDIDDELNELETLIKKKQDEKKSSELELQKLVHDLNKYKSNTNNMEKIIEDLRQKHEFLEDFDLVRNIVKQNEGIDLDTYRERSKQLNEKFQELRKKVNPNIMNMIENVEKKEAALKTMIKTIEKDKMKIQETISKLNEYKRETLVKTWEKVTLDFGNIFADLLPNSFAKLVPCEGKDVTQGLEVKVKLGNIWKESLIELSGGQRSLIALSLIMALLQFRPAPMYILDEVDAALDLSHTQNIGHLIKTRFKGSQFIVVSLKEGMFANANRVFRTRFQDGTSVVSIM

binding: binds
B4: Brn1-3xHA-12xHIS (protein, UniProt P38170 1-754)
chain: MTTQLRYENNDDDERVEYNLFTNRSTMMANFEEWIKMATDNKINSRNSWNFALIDYFYDLDVLKDGENNINFQKASATLDGCIKIYSSRVDSVTTETGKLLSGLAQRKTNGASNGDDSNGGNGEGLGGDSDEANIEIDPLTGMPISNDPDVNNTRRRVYNRVLETTLVEFETIKMKELDQELIIDPLFKKALVDFDEGGAKSLLLNTLNIDNTARVIFDASIKDTQNVGQGKLQRKEEELIERDSLVDDENEPSQSLISTRNDSTVNDSVISAPSMEDEILSLGMDFIKFDQIAVCEISGSIEQLRNVVEDINQAKDFIENVNNRFDNFLTEEELQAAVPDNAEDDSDGFDMGMQQELCYPDENHDNTSHDEQDDDNVNSTTGSIFEKDLMAYFDENLNRNWRGREHWKVRNFKKANLVNKESDLLEETRTTIGDTTDKNTTDDKSMDTKKKHKQKKVLEIDFFKTDDSFEDKVFASKGRTKIDMPIKNRKNDTHYLLPDDFHFSTDRITRLFIKPGQKMSLFSHRKHTRGDVSSGLFEKSTVSANHSNNDIPTIADEHFWADNYERKEQEEKEKEQSKEVGDVVGGALDNPFEDDMDGVDFNQAFEGTDDNEEASVKLDLQDDEDHKFPIRENKVTYSRVSKKVDVRRLKKNVWRSINNLIQEHDSRKNREQSSNDSETHTEDESTKELKFSDIIQGISKMYSDDTLKDISTSFCFICLLHLANEHGLQITHTENYNDLIVNYEDLATTQAAS

— article PMC6039025
